Record: PubChem BioAssay AID1259425 (University of Nebraska Medical Center, 2018)

Aim: 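Seek colon cancer weak points whose silencing resembles KSR1 loss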 (primary screen)
Cells: HCT116 human colon cancer cells
Reagents: siRNA pool against human genes, 50 nM siRNA
Detection: 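After 50 nM siRNA pool, branched-DNA assay measures six marker transcripts per well, minus blank, normalised to the geometric mean of two housekeeping transcripts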
Reading the numbers: BNIP3L mRNA: higher = more BNIP3L transcript after knockdown; NDRG1 mRNA: higher = more NDRG1 transcript after knockdown
The whole screen tested about 14,000 reagents; below is a random part of them. Some reagents were tested in more than one well and are listed for each. Further read-outs or replicates are left out here. Reagent sequences are not shown. Not stated in the record: the time to read-out.

With TXNDC9 (thioredoxin domain containing 9), how do the results read?
BNIP3L mRNA, set 1: 0.11; NDRG1 mRNA, set 1: 0.337

With RPS6 (ribosomal protein S6), what does the deposit list?
BNIP3L mRNA, set 1: 0.193; NDRG1 mRNA, set 1: 0.33

What did the screen give for RNF39 (ring finger protein 39)?
BNIP3L mRNA, set 1: 0.104; NDRG1 mRNA, set 1: 0.225

With ARFGEF1 (ARF guanine nucleotide exchange factor 1), how do the results read?
BNIP3L mRNA, set 1: 0.166; NDRG1 mRNA, set 1: 0.382

For CLTCL1 (clathrin heavy chain like 1), how do the results read?
BNIP3L mRNA, set 1: 0.118; NDRG1 mRNA, set 1: 0.422

With RPL41 (ribosomal protein L41), how do the results read?
BNIP3L mRNA, set 1: 0.106; NDRG1 mRNA, set 1: 0.0865

What did the screen give for LZTS3 (leucine zipper tumor suppressor family member 3)?
BNIP3L mRNA, set 1: 0.157; NDRG1 mRNA, set 1: 0.151

How did the screen score ZNF771 (zinc finger protein 771)?
BNIP3L mRNA, set 1: 0.208; NDRG1 mRNA, set 1: 0.477

With TSPAN12 (tetraspanin 12), what was measured?
BNIP3L mRNA, set 1: 0.144; NDRG1 mRNA, set 1: 0.29

With DNAI1 (dynein axonemal intermediate chain 1), how do the results read?
BNIP3L mRNA, set 1: 0.0718; NDRG1 mRNA, set 1: 0.289

With FUNDC2 (FUN14 domain containing 2), what does the deposit list?
BNIP3L mRNA, set 1: 0.0775; NDRG1 mRNA, set 1: 0.124

For PDE6B (phosphodiesterase 6B), what does the deposit list?
BNIP3L mRNA, set 1: 0.117; NDRG1 mRNA, set 1: 0.253

What did the screen give for IGFBP1 (insulin like growth factor binding protein 1)?
BNIP3L mRNA, set 1: 0.108; NDRG1 mRNA, set 1: 0.0595

Quoted from above, 4 entries:
RNF39 (ring finger protein 39): BNIP3L mRNA, set 1 = 0.104; NDRG1 mRNA, set 1 = 0.225
ARFGEF1 (ARF guanine nucleotide exchange factor 1): BNIP3L mRNA, set 1 = 0.166; NDRG1 mRNA, set 1 = 0.382
CLTCL1 (clathrin heavy chain like 1): BNIP3L mRNA, set 1 = 0.118; NDRG1 mRNA, set 1 = 0.422
RPL41 (ribosomal protein L41): BNIP3L mRNA, set 1 = 0.106; NDRG1 mRNA, set 1 = 0.0865

Continued:
For TM4SF20 (transmembrane 4 L six family member 20), what does the deposit list?
BNIP3L mRNA, set 1: 0.259; NDRG1 mRNA, set 1: 0.209

For AHSP (alpha hemoglobin stabilizing protein), what does the deposit list?
BNIP3L mRNA, set 1: 0.156; NDRG1 mRNA, set 1: 0.388

For AHSP (alpha hemoglobin stabilizing protein), what does the deposit list?
BNIP3L mRNA, set 1: 0.114; NDRG1 mRNA, set 1: 0.228

With SLC25A33, what was measured?
BNIP3L mRNA, set 1: 0.138; NDRG1 mRNA, set 1: 0.327

Which result is listed for GLB1 (galactosidase beta 1)?
BNIP3L mRNA, set 1: 0.0874; NDRG1 mRNA, set 1: 0.207

What did the screen give for AIRIM (AFG2 interacting ribosome maturation factor)?
BNIP3L mRNA, set 1: 0.105; NDRG1 mRNA, set 1: 0.19

For TMEM209 (transmembrane protein 209), what was measured?
BNIP3L mRNA, set 1: 0.118; NDRG1 mRNA, set 1: 0.144

For NOP56 (NOP56 ribonucleoprotein), what was measured?
BNIP3L mRNA, set 1: 0.112; NDRG1 mRNA, set 1: 0.285

Which result is listed for DNAAF9 (dynein axonemal assembly factor 9)?
BNIP3L mRNA, set 1: 0.189; NDRG1 mRNA, set 1: 0.191

How did the screen score PARP11 (poly(ADP-ribose) polymerase family member 11)?
BNIP3L mRNA, set 1: 0.0597; NDRG1 mRNA, set 1: 0.324

For PARG (poly(ADP-ribose) glycohydrolase), how do the results read?
BNIP3L mRNA, set 1: 0.0931; NDRG1 mRNA, set 1: 0.375

How did the screen score SPAM1 (sperm adhesion molecule 1)?
BNIP3L mRNA, set 1: 0.0468; NDRG1 mRNA, set 1: 0.0799

Which result is listed for IFI27L2 (interferon alpha inducible protein 27 like 2)?
BNIP3L mRNA, set 1: 0.147; NDRG1 mRNA, set 1: 0.321

What did the screen give for MAPK7 (mitogen-activated protein kinase 7)?
BNIP3L mRNA, set 1: 0.215; NDRG1 mRNA, set 1: 0.0362

How did the screen score NFATC2IP (nuclear factor of activated T cells 2 interacting protein)?
BNIP3L mRNA, set 1: 0.218; NDRG1 mRNA, set 1: 0.655

What did the screen give for BIK (BCL2 interacting killer)?
BNIP3L mRNA, set 1: 0.0784; NDRG1 mRNA, set 1: 0.136

With SLC4A8, what does the deposit list?
BNIP3L mRNA, set 1: 0.183; NDRG1 mRNA, set 1: 0.199

With MEP1B (meprin A subunit beta), what was measured?
BNIP3L mRNA, set 1: 0.119; NDRG1 mRNA, set 1: 1.27

Which result is listed for RHBDL2 (rhomboid like 2)?
BNIP3L mRNA, set 1: 0.0506; NDRG1 mRNA, set 1: 0.266

How did the screen score C11orf71 (chromosome 11 open reading frame 71)?
BNIP3L mRNA, set 1: 0.0843; NDRG1 mRNA, set 1: 0.113

Which result is listed for CCN3 (cellular communication network factor 3)?
BNIP3L mRNA, set 1: 0.0898; NDRG1 mRNA, set 1: 0.123

What did the screen give for MAPK8IP3 (mitogen-activated protein kinase 8 interacting protein 3)?
BNIP3L mRNA, set 1: 0.156; NDRG1 mRNA, set 1: 0.17

Which result is listed for DHX34 (DExH-box helicase 34)?
BNIP3L mRNA, set 1: 0.0969; NDRG1 mRNA, set 1: 0.133
